Results from article PMC5763582.
These are yes or no findings as the source states them, for the method shown. In cells and extracts the contact can be indirect. Some results given as binding are weak or reduced against the parent protein; the word gives no strength.

Tests used:
[1] = molecular target: FLAG-RHEB WT (UniProt Q15382); assay: co-IP; anti-FLAG M2 magnetic beads on lysates of HEK293T cells transfected with FLAG-RHEB forms; lysis buffer 50 mM HEPES pH 7.4, 150 mM NaCl, 0.4% CHAPS, 25 mM MgCl2; eluted with 3X FLAG peptide; Western blot for endogenous partners
[2] = molecular target: FLAG-RHEB T38A (UniProt Q15382); assay: as above
[3] = molecular target: FLAG-RHEB Y35N (UniProt Q15382); assay: as above
[4] = molecular target: FLAG-RHEB D60I (UniProt Q15382); assay: as above
[5] = molecular target: BRAF (NIH 3T3) (mouse (endogenous in NIH 3T3)) (UniProt P28028); assay: co-IP; endogenous BRAF immunoprecipitated from lysates of NIH 3T3 lines stably expressing FLAG-RHEB WT or FLAG-RHEB Y35N; Western blots for CRAF, BRAF and FLAG

Substance: BRAF (from UniProt P15056 1-766)
- binding [1]: binds
- binding [2]: binds
- binding [3]: binds
- binding [4]: binds

Substance: CRAF (from UniProt P04049 1-648)
- binding [1]: no binding

Substance: FLAG-RHEB WT (stably expressed in NIH 3T3) (from UniProt Q15382 1-184)
- binding [5]: binds

Substance: FLAG-RHEB Y35N (stably expressed in NIH 3T3) (from UniProt Q15382 1-184)
- binding [5]: binds
